{"source": "PubChem BioAssay AID1487", "about": "(National Center for Advancing Translational Sciences (NCATS), 2009)", "experiment": "qHTS Assay for Modulators of Lamin A Splicing", "details": "HeLa LMNA splicing GFP/RFP minigene ratio, 48 h", "summary_of_the_method": "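Read-out is the ratio of GFP to DsRed2 object intensity, acquired by 488 nm laser-scanning cytometry on HeLa lamin A-EGFP minigene reporter cells. Compound incubation 48 hrs at 37 °C in Opti-MEM with 2% FBS; DMSO 0.5% final.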", "key": {"[1]": {"details": "measured here: GFP splicing reporter channel"}, "[2]": {"details": "measured here: RFP viability control channel"}}, "note": "The list shows a part of the results. These are further read-outs of the screen, such as a control signal, another cell line or another target. No call is given for them. Most of these compounds were active or inconclusive in the main read-out, so they are no random draw. The note in brackets gives the kind of curve behind each potency; many fits are weak."}
{"smiles": "Cc1cc(C)nc(SCc2nnc(SCc3ccc([N+](=O)[O-])cc3)n2Cc2ccco2)n1", "values": [{"measurement": "AC50", "setting": "[1]", "value": "11.2 µM [rising, partial curve]"}, {"measurement": "AC50", "setting": "[2]", "value": "20 µM [rising, partial curve, poor fit]"}]}
{"smiles": "O=C(Nc1ccc(NC(=O)c2ccco2)c(Cl)c1)c1cccc([N+](=O)[O-])c1", "values": [{"measurement": "AC50", "setting": "[2]", "value": "20 µM [rising, single point]"}]}
{"smiles": "CC1(C)[C@H]2CC=C(CN3CCC(N4CCC(C(=O)N5CCCC5)CC4)CC3)[C@@H]1C2", "values": [{"measurement": "AC50", "setting": "[1]", "value": "6.31 µM [rising, single point]"}]}
{"smiles": "Cc1sc(NC(=O)/C=C/c2ccc3c(c2)OCO3)nc1-c1ccccc1", "values": [{"measurement": "AC50", "setting": "[1]", "value": "0.355 µM [rising, partial curve]"}]}
{"smiles": "O=C(CO)N/N=C/c1c2ccccc2cc2ccccc12", "values": [{"measurement": "AC50", "setting": "[2]", "value": "6.31 µM [rising, partial curve, poor fit]"}]}
{"smiles": "CN(CC1CCCO1)S(=O)(=O)c1ccc(C(=O)Nc2nc(-c3ccccn3)cs2)cc1", "note": "(configuration not stated)", "values": [{"measurement": "AC50", "setting": "[2]", "value": "3.98 µM [rising, full curve]"}]}
{"smiles": "O=C1NN=C(c2ccccc2)CC1c1c[nH]c2ccccc12", "note": "(configuration not stated)", "values": [{"measurement": "AC50", "setting": "[2]", "value": "0.355 µM [rising, partial curve]"}]}
{"smiles": "Cn1c(NC(=O)c2ccc(S(=O)(=O)N3CCCCC3)cc2)cc(=O)n(C)c1=O", "values": [{"measurement": "AC50", "setting": "[1]", "value": "35.5 µM [rising, single point]"}]}
{"smiles": "O=S(Cc1ccc(Br)cc1)Cc1nnc(SCc2c(Cl)cccc2Cl)n1-c1ccccc1", "note": "(configuration not stated)", "values": [{"measurement": "AC50", "setting": "[1]", "value": "35.5 µM [falling, single point]"}]}
{"smiles": "COc1ccc(CNc2ncnc3ccc(-c4ccccc4C#N)cc23)c(OC)c1", "values": [{"measurement": "AC50", "setting": "[1]", "value": "17.8 µM [falling, partial curve]"}, {"measurement": "AC50", "setting": "[2]", "value": "20 µM [falling, partial curve]"}]}
{"smiles": "Cc1cccc(N2CCN(CC(=O)Nc3ccccc3[N+](=O)[O-])CC2)c1C", "values": [{"measurement": "AC50", "setting": "[1]", "value": "35.5 µM [falling, single point]"}, {"measurement": "AC50", "setting": "[2]", "value": "35.5 µM [falling, single point]"}]}
{"smiles": "COc1ccc(CCNC(=O)COc2ccc(S(=O)(=O)N3CCCC3)cc2)cc1", "values": [{"measurement": "AC50", "setting": "[1]", "value": "1 µM [falling, full curve, poor fit]"}]}
{"smiles": "CC(C)(C)SCCNS(=O)(=O)c1ccc2ccccc2c1", "values": [{"measurement": "AC50", "setting": "[1]", "value": "35.5 µM [rising, single point]"}, {"measurement": "AC50", "setting": "[2]", "value": "31.6 µM [rising, single point]"}]}
{"smiles": "CC(C)N1C/C(=C/c2cccnc2)C(=O)/C(=C/c2cccnc2)C1", "values": [{"measurement": "AC50", "setting": "[1]", "value": "35.5 µM [falling, single point]"}, {"measurement": "AC50", "setting": "[2]", "value": "35.5 µM [falling, single point]"}]}
{"smiles": "COc1ccc(N2C(=O)CSCC2=O)cc1OC", "values": [{"measurement": "AC50", "setting": "[2]", "value": "0.562 µM [rising, full curve, poor fit]"}]}
{"smiles": "COc1ccc2c(c1)O[C@@H](c1cccc(C(F)(F)F)c1)[C@H](OC(=O)Nc1ccc(OC(F)F)cc1)C2=O", "values": [{"measurement": "AC50", "setting": "[1]", "value": "17.8 µM [rising, single point]"}, {"measurement": "AC50", "setting": "[2]", "value": "35.5 µM [rising, single point]"}]}
{"smiles": "CCSc1nc2ccccc2n1CCOc1ccccc1", "values": [{"measurement": "AC50", "setting": "[1]", "value": "35.5 µM [rising, single point]"}, {"measurement": "AC50", "setting": "[2]", "value": "35.5 µM [rising, single point]"}]}
{"smiles": "O=c1c2cc(Cl)ccc2nc(-c2ccccc2)n1O", "values": [{"measurement": "AC50", "setting": "[2]", "value": "0.0112 µM [rising, full curve, poor fit]"}]}
{"smiles": "CCc1c(C)sc2c1CCN(C(=O)Nc1ccccc1C(=O)OC)C2c1ccc(OC)cc1", "note": "(configuration not stated)", "values": [{"measurement": "AC50", "setting": "[2]", "value": "7.08 µM [rising, partial curve]"}]}
{"smiles": "Cc1ccc(Cl)cc1N1CCN(C(=O)c2cc3ccc4cccnc4c3[nH]2)CC1", "values": [{"measurement": "AC50", "setting": "[2]", "value": "10 µM [rising, partial curve]"}]}
{"smiles": "CC(C)c1ccc(C2=CC(c3cccc(Cl)c3)n3c(nc4ccccc43)N2)cc1", "note": "(configuration not stated)", "values": [{"measurement": "AC50", "setting": "[1]", "value": "3.98 µM [rising, full curve, poor fit]"}]}
{"smiles": "O=C(NCCC1=CCCCC1)c1ccc(Cl)c(S(=O)(=O)N2CCOCC2)c1", "values": [{"measurement": "AC50", "setting": "[2]", "value": "22.4 µM [rising, single point]"}]}
{"smiles": "O=C(NCc1ccc(Cl)cc1)C1=Cc2cc(Br)ccc2OC1", "values": [{"measurement": "AC50", "setting": "[2]", "value": "11.2 µM [rising, single point]"}]}
{"smiles": "FC(F)(F)COc1nc(N2CCOCC2)nc(N(c2ccccc2)c2ccccc2)n1", "values": [{"measurement": "AC50", "setting": "[2]", "value": "12.6 µM [rising, partial curve]"}]}
{"smiles": "CN(CC(=O)Nc1cccc(S(=O)(=O)NC2=NCCCCC2)c1)Cc1ccc(C(C)(C)C)cc1", "values": [{"measurement": "AC50", "setting": "[1]", "value": "6.31 µM [falling, partial curve]"}]}
{"smiles": "CC1CCCCN1CCCNC(=O)CN1C(=O)CSc2ccc(S(=O)(=O)N3CCOCC3)cc21", "note": "(configuration not stated)", "values": [{"measurement": "AC50", "setting": "[1]", "value": "20 µM [falling, partial curve, poor fit]"}]}
{"smiles": "O=C(/C=C(\\c1ccc(Cl)cc1)n1cncn1)c1ccc(Cl)cc1", "values": [{"measurement": "AC50", "setting": "[1]", "value": "35.5 µM [falling, single point]"}, {"measurement": "AC50", "setting": "[2]", "value": "35.5 µM [falling, single point]"}]}
{"smiles": "O=C1CCCN1CCCN=c1c([N+](=O)[O-])nn(-c2ccc(Cl)cc2)n1O", "values": [{"measurement": "AC50", "setting": "[2]", "value": "15.8 µM [falling, partial curve, poor fit]"}]}
{"smiles": "Cc1ccc(S(=O)(=O)Nc2ccc3nc(C)sc3c2)cc1", "values": [{"measurement": "AC50", "setting": "[1]", "value": "1.58 µM [rising, full curve]"}, {"measurement": "AC50", "setting": "[2]", "value": "2.82 µM [rising, full curve]"}]}
{"smiles": "CN1C(=O)C2(Oc3ccccc3C3CC(c4ccccc4)=NN32)c2ccccc21", "note": "(configuration not stated)", "values": [{"measurement": "AC50", "setting": "[1]", "value": "7.94 µM [falling, partial curve, poor fit]"}, {"measurement": "AC50", "setting": "[2]", "value": "5.62 µM [falling, full curve, poor fit]"}]}
{"smiles": "O=C(NC(c1ccccc1)C(Cl)Cl)c1ccccc1", "note": "(configuration not stated)", "values": [{"measurement": "AC50", "setting": "[2]", "value": "31.6 µM [rising, single point]"}]}
{"smiles": "COc1cc(OC)c(OC)cc1/C=C/C(=O)c1ccc(NS(=O)(=O)c2ccc(C)cc2)cc1", "values": [{"measurement": "AC50", "setting": "[2]", "value": "2.82 µM [rising, full curve, poor fit]"}]}
{"smiles": "CCc1sc(C(=O)NCc2cc(C)n(C)n2)cc1Br", "values": [{"measurement": "AC50", "setting": "[1]", "value": "17.8 µM [rising, single point]"}, {"measurement": "AC50", "setting": "[2]", "value": "25.1 µM [rising, single point]"}]}
{"smiles": "Cc1ccc(SCC(=O)c2c(C)[nH]c3ccccc23)cc1", "values": [{"measurement": "AC50", "setting": "[2]", "value": "35.5 µM [rising, single point]"}]}
{"smiles": "CCc1ccc(NC(=O)Nc2ccccc2OCc2cc(=O)n3ccccc3n2)cc1", "values": [{"measurement": "AC50", "setting": "[2]", "value": "20 µM [falling, single point]"}]}
{"smiles": "COc1cc(OC)c(-c2cc(C(=O)O)ccc2OC)c(OC)c1", "values": [{"measurement": "AC50", "setting": "[2]", "value": "0.355 µM [rising, single point]"}]}
